This is an account of results in PMC9723633.

Chains of the proteins cited; added tags and fusions are not shown.
UniProt P61406: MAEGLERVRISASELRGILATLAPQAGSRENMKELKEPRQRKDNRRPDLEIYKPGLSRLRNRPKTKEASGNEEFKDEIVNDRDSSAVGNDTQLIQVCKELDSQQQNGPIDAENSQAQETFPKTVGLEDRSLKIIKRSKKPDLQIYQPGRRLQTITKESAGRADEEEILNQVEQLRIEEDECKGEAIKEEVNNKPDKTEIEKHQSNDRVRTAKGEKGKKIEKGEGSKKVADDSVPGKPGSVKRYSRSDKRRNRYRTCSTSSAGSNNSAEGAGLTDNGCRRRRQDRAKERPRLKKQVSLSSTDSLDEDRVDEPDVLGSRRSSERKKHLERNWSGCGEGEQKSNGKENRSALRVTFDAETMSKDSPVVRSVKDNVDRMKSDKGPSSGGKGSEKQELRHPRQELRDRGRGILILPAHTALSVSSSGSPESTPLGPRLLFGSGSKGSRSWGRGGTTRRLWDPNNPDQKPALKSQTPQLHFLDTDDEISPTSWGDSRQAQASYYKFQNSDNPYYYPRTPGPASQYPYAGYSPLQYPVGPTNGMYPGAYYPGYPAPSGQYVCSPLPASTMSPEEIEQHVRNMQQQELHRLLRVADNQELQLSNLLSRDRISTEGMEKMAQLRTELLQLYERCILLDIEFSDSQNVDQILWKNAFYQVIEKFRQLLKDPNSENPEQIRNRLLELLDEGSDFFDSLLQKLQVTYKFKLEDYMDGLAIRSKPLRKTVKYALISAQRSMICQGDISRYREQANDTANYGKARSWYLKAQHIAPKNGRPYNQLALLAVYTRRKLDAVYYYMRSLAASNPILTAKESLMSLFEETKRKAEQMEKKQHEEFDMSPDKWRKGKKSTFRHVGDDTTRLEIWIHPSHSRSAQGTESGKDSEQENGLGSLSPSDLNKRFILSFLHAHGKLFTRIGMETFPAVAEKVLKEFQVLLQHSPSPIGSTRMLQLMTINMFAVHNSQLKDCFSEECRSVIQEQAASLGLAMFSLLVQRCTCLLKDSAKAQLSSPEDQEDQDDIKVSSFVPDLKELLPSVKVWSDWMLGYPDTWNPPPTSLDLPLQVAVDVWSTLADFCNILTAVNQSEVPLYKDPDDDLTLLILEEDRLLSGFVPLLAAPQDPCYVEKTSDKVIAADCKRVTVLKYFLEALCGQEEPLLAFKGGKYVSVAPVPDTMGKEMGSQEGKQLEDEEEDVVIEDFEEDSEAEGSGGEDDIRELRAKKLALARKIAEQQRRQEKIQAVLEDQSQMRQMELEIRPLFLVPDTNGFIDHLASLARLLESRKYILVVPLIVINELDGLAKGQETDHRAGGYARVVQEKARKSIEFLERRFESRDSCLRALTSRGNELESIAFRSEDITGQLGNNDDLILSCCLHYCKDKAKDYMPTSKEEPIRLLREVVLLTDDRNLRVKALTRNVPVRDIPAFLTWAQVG
UniProt Q91VC3: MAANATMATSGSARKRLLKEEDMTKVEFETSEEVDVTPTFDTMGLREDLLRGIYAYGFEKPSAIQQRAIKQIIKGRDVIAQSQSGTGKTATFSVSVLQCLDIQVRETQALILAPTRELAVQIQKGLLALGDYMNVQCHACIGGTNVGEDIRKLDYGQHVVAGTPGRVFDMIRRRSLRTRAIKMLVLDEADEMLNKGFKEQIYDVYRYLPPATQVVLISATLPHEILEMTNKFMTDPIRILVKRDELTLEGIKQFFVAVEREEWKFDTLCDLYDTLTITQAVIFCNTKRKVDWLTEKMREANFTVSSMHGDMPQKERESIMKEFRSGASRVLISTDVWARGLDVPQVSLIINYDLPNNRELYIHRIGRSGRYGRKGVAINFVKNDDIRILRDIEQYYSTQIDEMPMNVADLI
UniProt Q61545: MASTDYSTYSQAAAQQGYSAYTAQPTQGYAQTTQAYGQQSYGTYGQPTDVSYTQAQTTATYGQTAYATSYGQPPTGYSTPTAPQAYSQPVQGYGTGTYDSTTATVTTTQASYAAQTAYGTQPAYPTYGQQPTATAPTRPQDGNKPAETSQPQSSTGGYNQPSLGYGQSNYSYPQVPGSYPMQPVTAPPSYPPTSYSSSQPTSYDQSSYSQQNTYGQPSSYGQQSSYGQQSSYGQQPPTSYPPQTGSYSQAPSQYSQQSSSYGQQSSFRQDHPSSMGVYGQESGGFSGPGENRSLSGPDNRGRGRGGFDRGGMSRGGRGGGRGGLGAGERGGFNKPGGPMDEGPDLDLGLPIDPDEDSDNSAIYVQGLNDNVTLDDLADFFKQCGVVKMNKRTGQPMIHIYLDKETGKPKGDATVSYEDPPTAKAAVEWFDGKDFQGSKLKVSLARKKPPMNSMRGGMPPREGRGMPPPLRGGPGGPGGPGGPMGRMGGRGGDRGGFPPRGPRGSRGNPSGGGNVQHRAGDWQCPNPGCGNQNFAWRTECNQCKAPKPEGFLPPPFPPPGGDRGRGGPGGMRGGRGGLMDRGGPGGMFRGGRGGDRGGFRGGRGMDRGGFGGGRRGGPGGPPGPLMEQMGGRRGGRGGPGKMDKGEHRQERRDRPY
UniProt Q61990: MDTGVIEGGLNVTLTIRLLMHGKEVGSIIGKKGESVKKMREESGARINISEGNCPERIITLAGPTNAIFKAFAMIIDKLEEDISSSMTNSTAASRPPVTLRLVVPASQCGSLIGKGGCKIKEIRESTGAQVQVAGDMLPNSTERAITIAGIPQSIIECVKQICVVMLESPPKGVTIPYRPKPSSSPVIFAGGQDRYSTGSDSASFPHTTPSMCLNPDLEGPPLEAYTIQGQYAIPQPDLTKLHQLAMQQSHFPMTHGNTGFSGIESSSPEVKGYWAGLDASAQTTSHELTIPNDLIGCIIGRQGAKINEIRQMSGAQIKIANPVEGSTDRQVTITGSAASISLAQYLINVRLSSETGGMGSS
UniProt Q9JMB7: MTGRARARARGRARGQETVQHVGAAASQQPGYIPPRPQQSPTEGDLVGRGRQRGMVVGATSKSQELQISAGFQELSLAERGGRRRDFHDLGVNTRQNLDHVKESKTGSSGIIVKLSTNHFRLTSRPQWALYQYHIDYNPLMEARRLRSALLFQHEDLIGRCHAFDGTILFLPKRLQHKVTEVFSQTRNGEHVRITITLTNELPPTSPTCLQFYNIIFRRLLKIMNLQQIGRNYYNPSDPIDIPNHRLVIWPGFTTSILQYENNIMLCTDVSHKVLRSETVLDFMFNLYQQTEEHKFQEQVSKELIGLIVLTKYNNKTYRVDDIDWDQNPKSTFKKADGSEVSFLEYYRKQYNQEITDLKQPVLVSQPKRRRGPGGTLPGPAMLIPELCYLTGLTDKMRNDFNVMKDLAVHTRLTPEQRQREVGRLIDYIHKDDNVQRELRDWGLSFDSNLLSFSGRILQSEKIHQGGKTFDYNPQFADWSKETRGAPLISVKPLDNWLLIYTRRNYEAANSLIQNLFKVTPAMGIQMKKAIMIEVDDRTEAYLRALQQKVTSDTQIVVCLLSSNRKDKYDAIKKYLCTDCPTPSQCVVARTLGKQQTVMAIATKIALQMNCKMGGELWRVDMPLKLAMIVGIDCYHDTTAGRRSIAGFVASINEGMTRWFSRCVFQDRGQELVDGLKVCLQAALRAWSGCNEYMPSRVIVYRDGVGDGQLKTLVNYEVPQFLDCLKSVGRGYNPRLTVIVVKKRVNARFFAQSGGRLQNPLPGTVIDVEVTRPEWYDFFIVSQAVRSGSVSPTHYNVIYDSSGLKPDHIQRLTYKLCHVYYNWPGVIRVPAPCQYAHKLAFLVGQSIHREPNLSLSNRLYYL
UniProt Q91W18: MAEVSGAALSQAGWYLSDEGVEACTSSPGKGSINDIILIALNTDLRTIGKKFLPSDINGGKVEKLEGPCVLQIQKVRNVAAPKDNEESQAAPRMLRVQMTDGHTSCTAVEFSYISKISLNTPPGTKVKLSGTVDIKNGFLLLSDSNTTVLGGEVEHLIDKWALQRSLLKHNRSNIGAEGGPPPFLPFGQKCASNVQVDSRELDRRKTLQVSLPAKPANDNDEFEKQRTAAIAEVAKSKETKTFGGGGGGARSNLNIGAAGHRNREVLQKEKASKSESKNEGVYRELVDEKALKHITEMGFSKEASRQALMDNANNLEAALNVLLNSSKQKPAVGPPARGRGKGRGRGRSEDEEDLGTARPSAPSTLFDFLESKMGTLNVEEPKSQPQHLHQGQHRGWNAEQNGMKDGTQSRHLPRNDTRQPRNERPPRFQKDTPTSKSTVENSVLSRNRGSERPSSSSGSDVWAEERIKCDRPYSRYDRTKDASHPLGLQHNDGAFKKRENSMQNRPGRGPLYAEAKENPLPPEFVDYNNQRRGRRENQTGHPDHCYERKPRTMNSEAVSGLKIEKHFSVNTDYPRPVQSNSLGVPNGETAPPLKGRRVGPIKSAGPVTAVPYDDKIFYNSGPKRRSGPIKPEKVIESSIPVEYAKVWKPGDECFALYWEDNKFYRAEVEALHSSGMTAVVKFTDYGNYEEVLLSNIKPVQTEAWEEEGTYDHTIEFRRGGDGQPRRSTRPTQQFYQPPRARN

Test [1] has as its target SMG6 (mouse (endogenous in testis)) (UniProt P61406). Description: affinity purification with mass spectrometry; IP with anti-SMG6, anti-SMG7 or rabbit IgG from adult mouse testis lysate in nondenaturing lysis buffer, LC-ESI-MS/MS; threshold of at least 1 peptide hit in at least two replicate IPs.
The target of test [2] is T1, DEAD box polypeptide 4 (DDX4) (mouse (endogenous in testis)) (UniProt Q61496).
T1 sequence: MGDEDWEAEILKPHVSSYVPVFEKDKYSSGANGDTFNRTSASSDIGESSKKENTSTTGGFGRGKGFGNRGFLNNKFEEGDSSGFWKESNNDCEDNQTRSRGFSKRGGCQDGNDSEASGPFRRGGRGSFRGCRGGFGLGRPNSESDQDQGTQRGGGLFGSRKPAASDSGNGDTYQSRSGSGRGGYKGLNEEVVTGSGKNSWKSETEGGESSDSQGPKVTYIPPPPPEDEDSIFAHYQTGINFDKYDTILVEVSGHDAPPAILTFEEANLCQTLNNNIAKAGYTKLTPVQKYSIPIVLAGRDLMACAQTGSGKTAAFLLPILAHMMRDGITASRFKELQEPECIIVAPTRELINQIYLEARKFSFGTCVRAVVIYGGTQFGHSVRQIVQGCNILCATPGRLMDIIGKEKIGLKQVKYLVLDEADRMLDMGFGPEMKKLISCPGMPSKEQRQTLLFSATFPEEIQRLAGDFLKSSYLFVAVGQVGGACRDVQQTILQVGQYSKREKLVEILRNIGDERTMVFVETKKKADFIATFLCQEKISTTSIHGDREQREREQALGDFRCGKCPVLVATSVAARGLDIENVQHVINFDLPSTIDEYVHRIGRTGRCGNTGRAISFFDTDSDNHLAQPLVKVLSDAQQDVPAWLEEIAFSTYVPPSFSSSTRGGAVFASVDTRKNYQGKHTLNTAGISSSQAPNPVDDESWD
In words: affinity purification with mass spectrometry; chromatoid bodies isolated by anti-DDX4 IP from 0.1% PFA cross-linked mouse germ cells (Smg6-cKO and control), LC-ESI-MS/MS; rabbit IgG as control.

Test [3] concerns the target T2, DEAD box polypeptide 4 (DDX4) (mouse (endogenous in testis)), Q61496.
T2 chain: T1 sequence
The test is described as above. Particulars: remark: other sources report otherwise.

In test [4] the target is T3, SMG7 (mouse (endogenous in testis)) (UniProt Q5RJH6).
T3 sequence: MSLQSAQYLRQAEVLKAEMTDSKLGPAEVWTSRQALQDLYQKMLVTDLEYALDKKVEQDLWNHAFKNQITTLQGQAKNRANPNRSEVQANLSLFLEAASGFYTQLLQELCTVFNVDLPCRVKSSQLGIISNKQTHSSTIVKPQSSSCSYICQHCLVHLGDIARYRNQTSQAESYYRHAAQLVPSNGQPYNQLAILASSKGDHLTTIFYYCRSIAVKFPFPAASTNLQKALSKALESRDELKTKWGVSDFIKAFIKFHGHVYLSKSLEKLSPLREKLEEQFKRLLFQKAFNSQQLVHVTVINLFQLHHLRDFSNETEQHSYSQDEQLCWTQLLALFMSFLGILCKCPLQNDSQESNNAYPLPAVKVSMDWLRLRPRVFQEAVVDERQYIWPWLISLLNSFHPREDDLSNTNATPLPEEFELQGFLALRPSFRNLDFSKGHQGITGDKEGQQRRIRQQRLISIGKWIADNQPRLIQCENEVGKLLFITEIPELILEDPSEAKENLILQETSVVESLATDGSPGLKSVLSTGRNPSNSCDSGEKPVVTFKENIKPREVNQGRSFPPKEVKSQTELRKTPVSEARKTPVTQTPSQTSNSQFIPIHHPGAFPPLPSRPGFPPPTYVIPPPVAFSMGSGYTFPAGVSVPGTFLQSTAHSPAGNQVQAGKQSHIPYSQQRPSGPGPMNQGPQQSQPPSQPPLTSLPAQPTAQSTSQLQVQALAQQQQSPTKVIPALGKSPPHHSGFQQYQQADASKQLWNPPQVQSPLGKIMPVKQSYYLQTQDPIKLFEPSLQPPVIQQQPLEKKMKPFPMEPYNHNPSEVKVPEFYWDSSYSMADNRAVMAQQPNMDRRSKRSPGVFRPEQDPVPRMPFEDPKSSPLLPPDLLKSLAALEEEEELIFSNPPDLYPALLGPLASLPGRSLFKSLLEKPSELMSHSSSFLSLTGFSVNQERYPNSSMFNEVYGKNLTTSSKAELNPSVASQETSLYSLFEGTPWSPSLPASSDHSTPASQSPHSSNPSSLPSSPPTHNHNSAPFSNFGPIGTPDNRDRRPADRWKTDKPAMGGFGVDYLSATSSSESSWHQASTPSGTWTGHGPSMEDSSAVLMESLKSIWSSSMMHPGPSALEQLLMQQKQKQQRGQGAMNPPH
Description: affinity purification with mass spectrometry; IP with anti-SMG6, anti-SMG7 or rabbit IgG from adult mouse testis lysate in nondenaturing lysis buffer, LC-ESI-MS/MS; threshold of at least 1 peptide hit in at least two replicate IPs.

No constants are given. Whether binding was seen depends on the method and setting. In cells and extracts the contact can be indirect. Here binding means that the protein was enriched with, or labelled near, the bait; the list need not be complete. For some assays here: A no says only that the protein was not detected with the bait.

Turning to EIF4A3 (from UniProt Q91VC3 1-411), the binding result in test [1] is recorded as “binds”.

In the case of EWSR1 (from UniProt Q61545 1-655), in test [1], the binding entry is listed as “binds”.

For the molecule PCBP2 (from UniProt Q61990 1-362), in test [1], the binding entry was “binds”.

With PIWIL1 (from UniProt Q9JMB7 1-862), in test [2], the binding entry is “binds”.

In the case of TDRD3 (from UniProt Q91W18 1-743), the binding entry in test [1] was “binds”.

B1: DDX25, Q9QY15 1-484 (protein)
chain: MASLLWGGDAGAAESERLNSHFSNLVHPRKNLRGIRSTTVPNIDGSLNTEDDDDDEDDVVDLAANSLLNKLIRQSLIESSHRVEVLQKDPSSPLYSVKTFEELRLKEELLKGIYAMGFNRPSKIQEMALPMMLAHPPQNLIAQSQSGTGKTAAFVLAMLSRVNALELFPQCLCLAPTYELALQTGRVVERMGKFCVDVEVMYAIRGNRIPRGTEVTKQIIIGTPGTVLDWCFKRKLIDLTKIRVFVLDEADVMIDTQGFSDQSIRIQRALPSECQMLLFSATFEDSVWQFAERIIPDPNVIKLRKEELTLNNIRQYYVLCENRKGKYQALCNIYGGITIGQAIIFCQTRRNAKWLTVEMMQDGHQVSLLSGELTVEQRASIIQRFRDGKEKVLITTNVCARGIDVKQVTIVVNFDLPVNQSEEPDYETYLHRIGRTGRFGKKGLAFNMIEVDKLPLLMKIQDHFNSNIKQLDPEDMDEIEKIEY
On to B1, for which the binding result in test [3] is “binds”.

B2: SMG5 (protein, UniProt Q6ZPY2 1-1017)
chain: MSQGPPPGESSEPEAKVLHTKRLYRAVVEAVHRLDLILCNKAAYQEVFKPENVSLRNKLRELCVKLMFLHPVDYGRKAEELLWRKVYYEVIQLIKTNKKHIHSRSTLECAYRTHLVAGIGFYQHLLLYIQSHYQLELQCCIDWTHVTDPLMGFKKPVSASGKEMDWAQMACHRCLVYLGDLSRYQNELAGVDTELLAERFYYQALSVAPQIGMPFNQLGTLAGSKYYNVEAMYCYLRCIQSEVSFEGAYGNLKRLYDKAAKMYHQLKKSETRKLSPSKKRCKDIKRLLVNFMYLQSLLQPKSSSVDSELTSLCQSVLEDFNLCLFYLPSSPNLGLTNEDEEECESGYAFLPDLLIFQMAIICLMGVHSLKRAGSKHYSAAIAFTLALFSHLINHVNIRLQAELEEGENPVSAFQSDGTDEPESKEALEKEEPEPEPPTVVPQADEGRKSRKHSRLSCLRRRRRHHPPKAGDDSDLSEGFESDSSHDSAQASDGSDSGSDKSLEGRGTAFDAETDSEMNSQESRSDLEDMEDEEGTRSPAQEPPQARSEVPDSLNGPLGPSEASIASNLQAMSTQMFQTKRCFRLAPTFSNLLLQPTTEPNSVASHRPCVNGDMDKPLEPASEDGSESEGSESSNRSCRNERSLQEKLQALMAEGLLPAVKVFLDWLRTNPDLIIVCAQSSQSLWNRLSVLLNLLPASAELQDSGLALCSEVQGLLEGCELPDLPASLLLPEDMALRNLPPLRAAHRRFNFDADRPLLSALEESVVRICCIRSFGHFVARLQGSILQFNPEVGIFVSIAQSEQESLLQQAQAQFRMAEEEARRNRLMRDMAQLRLQLEVSQLEGSLQQPKAQSAMSPYLIPDTQALCYHLPLIRQLATSGRFIIIIPRTVIDGLDLLKKEQPGARDGIRYLEAEFKKGNRYIRCQKEVGKSFERHKLKRQDADAWTLYKILDSCRQLTLAQGAGEEDPSGMVTIITGLHLDSPSALSGPMQAALQAAAHASVDVKNVLDFYRQWKEIG
As for B2, the binding entry in test [4] is “binds”.

B3: GTSF1 (protein, UniProt Q9DAN6 1-167)
chain: MEDTYIDSLDPEKLLQCPYDKNHQIRACRFPYHLIKCRKNHPDVANKLATCPFNARHQVPRAEISHHISSCDDKSCIEQDVVNQTRNLGQETLAESTWQCPPCDEDWDKDLWEQTSTPFVWGTASFCGNNSPANNIVMEHKSNLASGMRVPKSLPYVLPWKNNGNAQ
As to B3, in test [2], the binding entry is on record as “no binding”.
